The data set is described as follows: general procedure: solution-phase peptide synthesis; N-ethoxycarbonyl-2-ethoxy-1,2-dihydroquinoline. The conditions noted are these: for step yield: coupling step.

“N-[4-(11,12-Didehydrodibenzo[b,f]azocin-5 (6H)-yl)-4-oxobutanoyl]glycylglycyl-D-prolyl-N-{4-[({[(11a′S)-11′-hydroxy-7′-methoxy-8′-(3-{[(11aS)-7-methoxy-2-(4-methoxyphenyl)-5-oxo-5,10,11,11a-tetrahydro-1H-pyrrolo[2,1-c][1,4]benzodiazepin-8-yl]oxy}propoxy)-5′-oxo-11′,11a′-dihydro-1′H-spiro[cyclopropane-1,2′-pyrrolo[2,1-c][1,4]benzodiazepine]-10′(5′H)-yl]carbonyl}oxy)methyl]phenyl}-L-isoleucinamide” showed a step yield of 69%.

“N-[4-(11,12-Didehydrodibenzo[b,f]azocin-5 (6H)-yl)-4-oxobutanoyl]glycylglycyl-D-valyl-N-{4-[({[(11a′S)-11′-hydroxy-7′-methoxy-8′-(3- {[(11aS)-7-methoxy-2-(4-methoxyphenyl)-5-oxo-5,10,11,11a-tetrahydro-1H-pyrrolo[2,1-c][1,4]benzodiazepin-8-yl]oxy}propoxy)-5′-oxo-11′,11a′-dihydro-1′H-spiro[cyclopropane-1,2′-pyrrolo[2,1-c][1,4]benzodiazepine]-10′(5′H)-yl]carbonyl}oxy)methyl]phenyl}-L-alaninamide”: the step yield was 65%.

In turn, “N-[4-(11,12-Didehydrodibenzo[b,f]azocin-5 (6H)-yl)-4-oxobutanoyl]glycylglycyl-L-phenylalanyl-N-{4-[({[(11a′S)-11′-hydroxy-7′-methoxy-8′-(3- {[(11aS)-7-methoxy-2-(4-methoxyphenyl)-5-oxo-5,10,11,11a-tetrahydro-1H-pyrrolo[2,1-c][1,4]benzodiazepin-8-yl]oxy}propoxy)-5′-oxo-11′,11a′-dihydro-1′H-spiro[cyclopropane-1,2′-pyrrolo[2,1-c][1,4]benzodiazepine]-10′(5′H)-yl]carbonyl}oxy)methyl]phenyl}glycinamide” displayed a step yield of 33%.

The substance “N-[4-(11,12-Didehydrodibenzo[b,f]azocin-5 (6H)-yl)-4-oxobutanoyl]glycylglycyl-L-prolyl-N-{4-[({[(11a′S)-11′-hydroxy-7′-methoxy-8′-(3- {[(11aS)-7-methoxy-2-(4-methoxyphenyl)-5-oxo-5,10,11,11a-tetrahydro-1H-pyrrolo[2,1-c][1,4]benzodiazepin-8-yl]oxy}propoxy)-5′-oxo-11′,11a′-dihydro-1′H-spiro[cyclopropane-1,2′-pyrrolo[2,1-c][1,4]benzodiazepine]-10′(5′H)-yl]carbonyl}oxy)methyl]phenyl}-L-isoleucinamide” had a step yield of 75%.

On to “N-[4-(11,12-Didehydrodibenzo[b,f]azocin-5 (6H)-yl)-4-oxobutanoyl]glycylglycyl-L-prolyl-N-{4-[({[(11a′S)-11′-hydroxy-7′-methoxy-8′-(3-{[(11aS)-7-methoxy-2-(4-methoxyphenyl)-5-oxo-5,10,11,11a-tetrahydro-1H-pyrrolo[2,1-c][1,4]benzodiazepin-8-yl]oxy}propoxy)-5′-oxo-11′,11a′-dihydro-1′H-spiro[cyclopropane-1,2′-pyrrolo[2,1-c][1,4]benzodiazepine]-10′(5′H)-yl]carbonyl}oxy)methyl]phenyl}-L-leucinamide”, for which, where the note is “conjugation step”, the conjugation yield was 46%.

For “N-[4-(11,12-Didehydrodibenzo[b,f]azocin-5 (6H)-yl)-4-oxobutanoyl]glycylglycyl-L-valyl-N-{4-[({[(11a′S)-8′-(3-{[(11aS)-2-(3,4-dimethoxyphenyl)-7-methoxy-5-oxo-5,10,11,11a-tetrahydro-1H-pyrrolo[2,1-c][1,4]benzodiazepin-8-yl]oxy}propoxy)-11′-hydroxy-7′-methoxy-5′-oxo-11′,11a′-dihydro-1′H-spiro[cyclopropane-1,2′-pyrrolo[2,1-c][1,4]benzodiazepine]-10′(5′H)-yl]carbonyl}oxy)methyl]phenyl}-L-alaninamide”, the step yield is reported as 58%.

“N-[4-(11,12-Didehydrodibenzo[b,f]azocin-5 (6H)-yl)-4-oxobutanoyl]glycylglycyl-L-valyl-N-{4-[({[(11a′S)-8′-(3-{[(11aS)-2-(4-fluorophenyl)-7-methoxy-5-oxo-5,10,11,11a-tetrahydro-1H-pyrrolo[2,1-c][1,4]benzodiazepin-8-yl]oxy}propoxy)-11′-hydroxy-7′-methoxy-5′-oxo-11′,11a′-dihydro-1′H-spiro[cyclopropane-1,2′-pyrrolo[2,1-c][1,4]benzodiazepine]-10′(5′H)-yl]carbonyl}oxy)methyl]phenyl}-L-alaninamide” came in with a step yield of 45%.

Regarding “N-[4-(11,12-Didehydrodibenzo[b,f]azocin-5 (6H)-yl)-4-oxobutanoyl]glycylglycyl-L-valyl-N-{4-[({[(11a′S)-8′-(3-{[(11aS)-2-{4-[(acetyloxy)methyl]phenyl}-7-methoxy-5-oxo-5,10,11,11a-tetrahydro-1H-pyrrolo[2,1-c][1,4]benzodiazepin-8-yl]oxy}propoxy)-11′-hydroxy-7′-methoxy-5′-oxo-11′,11a′-dihydro-1′H-spiro[cyclopropane-1,2′-pyrrolo[2,1-c][1,4]benzodiazepine]-10′(5′H)-yl]carbonyl}oxy)methyl]phenyl}-L-alaninamide”, the step yield was 54%.

“N-[4-(11,12-Didehydrodibenzo[b,f]azocin-5 (6H)-yl)-4-oxobutanoyl]glycylglycyl-L-valyl-N-{4-[({[(11a′S)-8′-[3-({(11aS)-2-[4-(dimethylamino)phenyl]-7-methoxy-5-oxo-5,10,11,11a-tetrahydro-1H-pyrrolo[2,1-c][1,4]benzodiazepin-8-yl}oxy)propoxy]-11′-hydroxy-7′-methoxy-5′-oxo-11′,11a′-dihydro-1′H-spiro[cyclopropane-1,2′-pyrrolo[2,1-c][1,4]benzodiazepine]-10′(5′H)-yl]carbonyl}oxy)methyl]phenyl}-L-alaninamide” registered a step yield of 49%.

Consider “N-[4-(11,12-Didehydrodibenzo[b,f]azocin-5 (6H)-yl)-4-oxobutanoyl]glycylglycyl-L-valyl-N-{4-[({[(11a′S)-11′-hydroxy-7′-methoxy-8′-(3-{[7-methoxy-2-(6-methoxy-3-pyridinyl)-5-oxo-5,10,11,11a-tetrahydro-1H-pyrrolo[2,1-c][1,4]benzodiazepin-8-yl]oxy}propoxy)-5′-oxo-11′,11a′-dihydro-1′H-spiro[cyclopropane-1,2′-pyrrolo[2,1-c][1,4]benzodiazepine]-10′(5′H)-yl]carbonyl}oxy)methyl]phenyl}-L-alaninamide”, for which the step yield amounted to 8%.

Turning to “N-[4-(11,12-Didehydrodibenzo[b,f]azocin-5 (6H)-yl)-4-oxobutanoyl]glycylglycyl-L-valyl-N-{4-[({[(11a′S)-11′-hydroxy-7′-methoxy-8′-(3-{[7-methoxy-2-(6-methyl-3-pyridinyl)-5-oxo-5,10,11,11a-tetrahydro-1H-pyrrolo[2,1-c][1,4]benzodiazepin-8-yl]oxy}propoxy)-5′-oxo-11′,11a′-dihydro-1′H-spiro[cyclopropane-1,2′-pyrrolo[2,1-c][1,4]benzodiazepine]-10′(5′H)-yl]carbonyl}oxy)methyl]phenyl}-L-alaninamide”, the step yield turned out to be 11%.

Turning to “N-[4-(11,12-Didehydrodibenzo[b,f]azocin-5 (6H)-yl)-4-oxobutanoyl]glycylglycyl-L-valyl-N-{4-[({[(11a′S)-11′-hydroxy-7′-methoxy-8′-(3-{[(5aS)-10-methoxy-12-oxo-5a,12-dihydro-5H-indolo[2,1-c][1,4]benzodiazepin-9-yl]oxy}propoxy)-5′-oxo-11′,11a′-dihydro-1′H-spiro[cyclopropane-1,2′-pyrrolo[2,1-c][1,4]benzodiazepine]-10′(5′H)-yl]carbonyl}oxy)methyl]phenyl}-L-alaninamide”, the step yield is listed as 65%.

“N-[4-(11,12-Didehydrodibenzo[b,f]azocin-5 (6H)-yl)-4-oxobutanoyl]glycylglycyl-L-valyl-N-{4-[({[(11a′S)-11′-hydroxy-7′-methoxy-8′-(3-{[(11aS)-7-methoxy-2-(3-methoxyphenyl)-5-oxo-5,10,11,11a-tetrahydro-1H-pyrrolo[2,1-c][1,4]benzodiazepin-8-yl]oxy}propoxy)-5′-oxo-11′,11a′-dihydro-1′H-spiro[cyclopropane-1,2′-pyrrolo[2,1-c][1,4]benzodiazepine]-10′(5′H)-yl]carbonyl}oxy)methyl]phenyl}-L-alaninamide” gave a step yield of 52%.

On to “N-[4-(11,12-Didehydrodibenzo[b,f]azocin-5 (6H)-yl)-4-oxobutanoyl]glycylglycyl-L-valyl-N-{4-[({[(11a′S)-11′-hydroxy-7′-methoxy-8′-(3-{[(11aS)-7-methoxy-2-(4-methoxyphenyl)-5-oxo-5,10,11,11a-tetrahydro-1H-pyrrolo[2,1-c][1,4]benzodiazepin-8-yl]oxy}propoxy)-5′-oxo-11′,11a′-dihydro-1′H-spiro[cyclopropane-1,2′-pyrrolo[2,1-c][1,4]benzodiazepine]-10′(5′H)-yl]carbonyl}oxy)methyl]phenyl}-L-alaninamide”, for which the step yield stood at 44%.

“N-[4-(11,12-Didehydrodibenzo[b,f]azocin-5 (6H)-yl)-4-oxobutanoyl]glycylglycyl-L-valyl-N-{4-[({[(11a′S)-11′-hydroxy-7′-methoxy-8′-(3-{[(11aS)-7-methoxy-2-(4-methoxyphenyl)-5-oxo-5,10,11,11a-tetrahydro-1H-pyrrolo[2,1-c][1,4]benzodiazepin-8-yl]oxy}propoxy)-5′-oxo-11′,11a′-dihydro-1′H-spiro[cyclopropane-1,2′-pyrrolo[2,1-c][1,4]benzodiazepine]-10′(5′H)-yl]carbonyl}oxy)methyl]phenyl}-L-lysinamide” returned a step yield of 67%.

In the case of “N-[4-(11,12-Didehydrodibenzo[b,f]azocin-5 (6H)-yl)-4-oxobutanoyl]glycylglycyl-L-valyl-N-{4-[({[(11a′S)-11′-hydroxy-7′-methoxy-8′-(3-{[(11aS)-7-methoxy-2-(6-methoxynaphthalen-2-yl)-5-oxo-5,10,11,11a-tetrahydro-1H-pyrrolo[2,1-c][1,4]benzodiazepin-8-yl]oxy}propoxy)-5′-oxo-11′,11a′-dihydro-1′H-spiro[cyclopropane-1,2′-pyrrolo[2,1-c][1,4]benzodiazepine]-10′(5′H)-yl]carbonyl}oxy)methyl]phenyl}-L-alaninamide”, the step yield is given as 54%.

Values taken from patent US12350344 (dated 2025).
